Data published in patent US20080305111A1, “Anti-C35 antibodies for treating cancer” (VACCINEX, INC., priority 2006, published 2008).
Results are given in words; binding and its absence hold for the method and conditions named. Some binding calls cover weakened binding; strength is not graded here.

Key:
[1] = target: T1, C35 (native human C35 as expressed in cells) (human) (UniProt Q9BRT3); experiment: flow cytometry, 1F2-Alexa 647 on irradiated 21MT1 breast tumor cells
T1 sequence: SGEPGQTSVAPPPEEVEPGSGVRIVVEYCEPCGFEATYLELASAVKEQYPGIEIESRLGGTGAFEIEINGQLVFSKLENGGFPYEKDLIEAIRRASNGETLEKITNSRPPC

[2] = target: T1, C35 (native human C35 as expressed in cells) (human); experiment: flow cytometry, 50 ng 1F2-Alexa 647 against mouse IgG control-Alexa 647, cells treated with 6 µg/ml mitomycin C for 48 hours, gate Annexin V positive/PI negative (cells labelled 21NT on the sheet)
[3] = target: T1, C35 (native human C35 as expressed in cells) (human); experiment: flow cytometry, 50 ng 1F2-Alexa 647 on mitomycin C treated breast tumor cells
[4] = target: T1, C35 (native human C35 as expressed in cells) (human); experiment: flow cytometry, 50 ng 1F2-Alexa 647 against mouse IgG control-Alexa 647, cells irradiated with 300 Gy, gate Annexin V positive/PI negative (cells labelled 21NT on the sheet, 21MT1 in the legend)
[5] = target: T1, C35 (native human C35 as expressed in cells) (human); experiment: flow cytometry, 50 ng 1F2-Alexa 647 on irradiated breast tumor cells
[6] = target: T1, C35 (native human C35 as expressed in cells) (human); experiment: flow cytometry, 1F2-Alexa 647 on mitomycin C treated breast tumor cells
[7] = target: T1, C35 (native human C35 as expressed in cells) (human); experiment: flow cytometry, 100 ng 1F2-Alexa 647 pre-incubated with PAB buffer, 21MT1 cells 24 hours after 0.5 uM Taxol, gate annexin V positive/PI negative
[8] = target: T1, C35 (native human C35 as expressed in cells) (human); experiment: immunohistochemistry; also immunoprecipitation from cell lysates
[9] = target: T1, C35 (native human C35 as expressed in cells) (human); experiment: flow cytometry, Alexa-647 conjugated 1F2 against isotype control, cells dissociated from tumors grown in vivo
[10] = target: T1, C35 (native human C35 as expressed in cells) (human); experiment: intracellular flow cytometry, fixed and permeabilized cells, 1 µg antibody labelled with Alexa-647 per 0.5 million cells
[11] = target: T1, C35 (native human C35 as expressed in cells) (human); experiment: intracellular flow cytometry on fixed and permeabilised 21MT1 cells, 1 µg antibody
[12] = target: T1, C35 (native human C35 as expressed in cells) (human); experiment: immunoprecipitation from cell lysates and detection
[13] = target: T1, C35 (native human C35 as expressed in cells) (human); experiment: immunofluorescence (FMAT) on paraformaldehyde-fixed 21MT1-D cells, 0.1 to 3 µg/ml
[14] = target: T1, C35 (native human C35 as expressed in cells) (human); experiment: Western blot of 21MT1-D tumor cell lysate
[15] = target: T1, C35 (native human C35 as expressed in cells) (human); experiment: immunofluorescence on paraformaldehyde-fixed cells, MAb163 then anti-human IgG-APC, read on FMAT
[16] = target: T1, C35 (native human C35 as expressed in cells) (human); experiment: immunoprecipitation from 21MT1-D cell lysate, Western blot with rabbit anti-C35 polyclonal sera
[17] = target: T1, C35 (native human C35 as expressed in cells) (human); experiment: Western blot of 21MT1-D tumor cell lysate, MAb163 at 4.4 ug/ml
[18] = target: T1, C35 (native human C35 as expressed in cells) (human); experiment: immunofluorescence on human mammary cell lines
[19] = target: T1, C35 (native human C35 as expressed in cells) (human); experiment: Western blot, MAb163 at 4.4 ug/ml

Measured: binding

B1: 1F2 murine anti-C35 monoclonal antibody (antibody, V domains shown)
VH: DVQLQESGPGLVKPSQSLSLTCSVTGYSITSGYFWNWIRQFPGNKLEWMGYISYDGSNNSNPSLKNRISFTRDTSKNQFFLKFNSVTTDDSAAYYCTRGTTGFAYWGQGTLVTVSA
VL: QIVLTQSPAIMSASPGEKVTISCSASSSVSYMNWYQQKPGSSPKPWIYHTSNLASGVPARFSGSGSGTSYSLTISSMEAEDAATYYCQQYHSYPPTFGGGTKLEIK
binds: [1] | [2] | [3] | [4] | [5] | [6] | [7] | [8] | [9]

B2: MAb 11 (1B3 anti-C35 immunoglobulin variable regions linked to human constant regions) (antibody, V domains shown)
VH: EVQLQESGPSLVKPSQTLSLTCSVTGDSITSGYWNWIRKFPGNKLEYVGYISYSGGTYYNPSLKSRISITRDTSKNHYYLQLNSVTTEDTATYYCARGAYYGGAFFPYFDVWGAGTTVTVSS
VL: DVQITQSPSFLAASPGETITINCRASKYISKHLVWYQEKPGETKKLLIYSGSTLQSGLPSRFSGSGSGTDFTLTISSLEPEDFAMYYCQQHNEYPLTFGAGTKLELK
binds: [10] | [11]

B3: 1B3 murine anti-C35 monoclonal antibody (antibody, V domains shown)
VH: B2 VH
VL: B2 VL
binds: [12]

B4: MAb 163 human anti-C35 monoclonal antibody (antibody, V domains shown)
VH: EVQLVESGGGLVKPGGSLRLSCEVSGITFSNAWMSWVRQAPGKGLEWVGRIKSKTDGGTTDYAAPVKGRFTISRDDSKNTLYLQMNSLKTEDTAVYYCSIGYYYDSSFKYGMDVWGQGTTVTVSS
VL: DIQMTQSPATLSASVGDRVTITCRASQSISRWLAWYQQKPGQAPKVLIYKASTLQSGVPSRFSGSGSGTEFSLTINSLQPDDFATYYCQQYYSYLRTFGQGTKLEIK
binds: [13] | [14] | [15] | [16] | [10] | [17] | [18] | [19] | [11]
